Reference: paper PMC7295576

B1: HA-tagged wild-type CCDC137 (protein, UniProt Q6PK04 1-289)
chain: MAGAGRGAAVSRVQAGPGSPRRARGRQQVQPLGKQRPAPWPGLRSKEKKKVNCKPKNQDEQEIPFRLREIMRSRQEMKNPISNKKRKKAAQVTFRKTLEKEAKGEEPDIAVPKFKQRKGESDGAYIHRMQQEAQHVLFLSKNQAIRQPEVQAAPKEKSEQKKAKKAFQKRRLDKVRRKKEEKAADRLEQELLRDTVKFGEVVLQPPELTARPQRSVSKDQPGRRSQMLRMLLSPGGVSQPLTASLARQRIVEEERERAVQAYRALKQRQQQLHGERPHLTSRKKPEPQL
B2: V5-tagged CCDC137 (protein, UniProt Q6PK04 1-289)
chain: B1 chain
B3: V5-tagged ribosomal RNA processing protein 1 (RRP1) (protein, UniProt P56182 1-461)
chain: MVSRVQLPPEIQLAQRLAGNEQVTRDRAVRKLRKYIVARTQRAAGGFTHDELLKVWKGLFYCMWMQDKPLLQEELGRTISQLVHAFQTTEAQHLFLQAFWQTMNREWTGIDRLRLDKFYMLMRMVLNESLKVLKMQGWEERQIEELLELLMTEILHPSSQAPNGVKSHFIEIFLEELTKVGAEELTADQNLKFIDPFCRIAARTKDSLVLNNITRGIFETIVEQAPLAIEDLLNELDTQDEEVASDSDESSEGGERGDALSQKRSEKPPAGSICRAEPEAGEEQAGDDRDSGGPVLQFDYEAVANRLFEMASRQSTPSQNRKRLYKVIRKLQDLAGGIFPEDEIPEKACRRLLEGRRQKKTKKQKRLLRLQQERGKGEKEPPSPGMERKRSRRRGVGADPEARAEAGEQPGTAERALLRDQPRGRGQRGARQRRRTPRPLTSARAKAANVQEPEKKKKRRE

What was measured:
[1] = target: GST-Vpr WT (glutathione S-transferase fused to HIV-1 NL4-3 Vpr) (HIV-1 NL4-3); test: pull-down; GST or GST-Vpr co-expressed with HA-tagged CCDC137 in 293T cells, MG132 for 4 hr; lysis in 50 mM Tris pH 7.4, 150 mM NaCl, 5 mM EDTA, 5% glycerol, 1% Triton X-100; glutathione sepharose 4 hr at 4°C; Western blot
[2] = target: GST-Vpr mutant Q65R (HIV-1 NL4-3); test: as above
[3] = target: HA-tagged Vpr (HIV-1 NL4-3) (HIV-1 NL4-3); test: co-IP; HA-Vpr and V5-tagged proteins co-expressed in 293T cells, 10 µM MG132 for 4 hr; lysis in 50 mM Tris pH 7.4, 150 mM NaCl, 0.5 mM EDTA, 1% digitonin; anti-HA monoclonal antibody and Protein G Sepharose 3 hr at 4°C; Western blot

| Binder | binding [1] | binding [2] | binding [3] |
| --- | --- | --- | --- |
| B1 | binds | no binding |  |
| B2 |  |  | binds |
| B3 |  |  | no binding |

These are yes or no findings as the source states them, for the method shown. Binding seen in cells or lysates may run through a third protein. For some of these results: A result given as binding can be weak or reduced; the word gives no strength. Tags and fused reporters may be left off the sequences shown.
